Test results taken from patent publication US8932853B2, “Method for manufacturing pancreatic-hormone-producing cells” (Takeda Pharmaceutical Company Limited, priority 2009, dated 2015).
“Also recorded” adds a separate entry of the source. For at least one compound, name, drawing or mass did not settle the structure. Some entries repeat one wording, which the source may state once for all of them.

Experiments:
[1] = tested on: progenitor cells of pancreatic hormone-producing cells induced from human iPS cells; assay: immunofluorescent staining with anti-insulin antibody after step (4); type: cell-based; conditions: each added alone in step (4), day 10 to day 21; forskolin 10 μM, dibutyl cAMP 500 μM, IBMX 200 μM, ALK5 inhibitor II 5 μM, A-83-01 0.5 μM, SB431542 10 μM, TGFβRI kinase inhibitor VIII 2 μM, dexamethasone 10 μM, hydrocortisone 5 μM, betamethasone 2 μM, beclomethasone 1 μM
[2] = tested on: progenitor cells of pancreatic hormone-producing cells induced from human iPS cells; assay: quantitative RT-PCR of insulin and PDX1 after step (4); type: cell-based; conditions: added in step (4) from day 10; forskolin 10 μM, nicotinamide 10 mM, dexamethasone 10 μM, ALK5 inhibitor II 5 μM; measured on day 12, 16 and 20; vs control without inducing factors

SMILES	positive rate of insulin-expressing cells [1]	expression level of insulin [2]
C[C@H]1C[C@H]2[C@@H]3CCC4=CC(=O)C=C[C@]4(C)[C@@]3(F)[C@@H](O)C[C@]2(C)[C@@]1(O)C(=O)CO [betamethasone]	remarkably increased; also recorded: induced differentiation into insulin-positive cells with high efficiency	
C[C@@H]1C[C@H]2[C@@H]3CCC4=CC(=O)C=C[C@]4(C)[C@@]3(F)[C@@H](O)C[C@]2(C)[C@@]1(O)C(=O)CO [dexamethasone]	remarkably increased; also recorded: induced differentiation into insulin-positive cells with high efficiency	increased markedly; also recorded: high value
C=C[C@@]1(C)CC(=O)[C@]2(O)[C@@]3(C)[C@@H](O)CCC(C)(C)[C@@H]3[C@H](O)[C@H](OC(C)=O)[C@@]2(C)O1 [forskolin]	remarkably increased; also recorded: induced differentiation into insulin-positive cells with high efficiency	increased markedly; also recorded: high value
